Laboratory results: publication PMC7819943, “Rice protein-binding microarrays: a tool to detect cis-acting elements near promoter regions in rice”
The other results are listed elsewhere or left out.

Each sequence was assayed against T1, OsSMF1 (Oryza sativa, UniProt Q6ZLB0 1-436) (assay: protein-binding microarray (RPBM); PBS, 2% BSA, 51.3 ng/ul salmon testes DNA, 50 uM zinc acetate, 200 nM TF, 25 C, 1 h; high values mean tight binding). Conditions: protein: recombinant; tags: N-terminal polyhistidine and DsRed monomer fusion (pET32a); chain copies: 2; label: CyDye5-dUTP incorporated in the synthesized complementary strand; 3' TTTTT single-stranded linker to array surface; dsDNA, one strand shown.
T1 sequence: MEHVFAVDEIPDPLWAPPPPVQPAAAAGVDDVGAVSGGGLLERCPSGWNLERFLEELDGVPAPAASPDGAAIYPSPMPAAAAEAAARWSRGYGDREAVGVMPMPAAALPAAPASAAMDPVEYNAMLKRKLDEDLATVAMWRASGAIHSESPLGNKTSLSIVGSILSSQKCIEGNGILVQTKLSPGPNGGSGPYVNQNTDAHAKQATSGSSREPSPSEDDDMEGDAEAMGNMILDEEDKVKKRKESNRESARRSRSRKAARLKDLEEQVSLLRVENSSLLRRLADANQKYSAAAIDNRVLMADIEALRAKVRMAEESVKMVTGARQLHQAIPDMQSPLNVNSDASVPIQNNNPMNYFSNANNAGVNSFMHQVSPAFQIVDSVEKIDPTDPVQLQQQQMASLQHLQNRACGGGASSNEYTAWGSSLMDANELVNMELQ
Method in brief: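 The binding signal is fluorescence intensity per feature, in arbitrary units, read on an Axon 4000B scanner. Polyhistidine- and DsRed-tagged transcription factors (N-terminal fusions) from E. coli BL21-CodonPlus were purified on Ni–NTA and applied at 200 nM for 1 h at 25 °C to a double-stranded, BSA-blocked custom Agilent array in buffer with 50 µM zinc acetate.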

Compared with “AACGCCACGCGCGCCCCGTCACGGTGGAAATGCCCGTTCTCGGAGTCACCTAGTGCAG”, “GACGCCATCTCCCCTATTCGCTACAGCGATGTCGTGTCATCGGAGTCACCTAGTGCAG” is lower in binding signal: 7420 fluorescence intensity (a.u.) for the first, 5590 fluorescence intensity (a.u.) for the second.

Going from “GCATAGGAAGGTGACATGGCATATCCATGTGGCGATTTTGCGGAGTCACCTAGTGCAG” to “CGACGACCACTGCCGGTGTAGATGTGGATGCCTCGGACGCCGGAGTCACCTAGTGCAG”, the binding signal falls from 7280 fluorescence intensity (a.u.) to 4140 fluorescence intensity (a.u.).

First: ACCCTCCGTCGTCATTACACGCGGACTCGTCCTCCGCCGCCGGAGTCACCTAGTGCAG
Second: TCCATTGCATATAATTCAATTCATCGAAATCATGACATTTCGGAGTCACCTAGTGCAG
The binding signal of the first is lower: 6860 fluorescence intensity (a.u.) for the first, 46400 fluorescence intensity (a.u.) for the second.

Compared with “AGGGGTAGCAGCAGCAGAAACAGAAGCAGAGTGACAGGGACGGAGTCACCTAGTGCAG”, “GTGCTGTACCACGTGGCATCTCCCCTCCATGTCCCAATCACGGAGTCACCTAGTGCAG” is higher in binding signal: 3510 fluorescence intensity (a.u.) for the first, 19900 fluorescence intensity (a.u.) for the second.

Compared with “CGCTACGACTGGACTGACATACTCCTCGGAACCGGTGGTGCGGAGTCACCTAGTGCAG”, “GTCTCAGATAAGACCACGTCGCTCTGCAACGTCGTAGTAGCGGAGTCACCTAGTGCAG” is lower in binding signal: 3490 fluorescence intensity (a.u.) for the first, 3470 fluorescence intensity (a.u.) for the second.

Compared with “CTCCGCCTCCTCCTCCTCCCGTCCAGCCCGTATCGACGAGCGGAGTCACCTAGTGCAG”, “GGTGTGTATTGACGCACCACGTATGTCTATCTTCTTTCGTCGGAGTCACCTAGTGCAG” is lower in binding signal: 4120 fluorescence intensity (a.u.) for the first, 3820 fluorescence intensity (a.u.) for the second.

Compared with “AGAATCGGTTCCTTGCAGACGTGTTCGATCTGCTGGTGCCCGGAGTCACCTAGTGCAG”, “AGTAGTATTGGCTTGGGGTGTTGCCACGTCATCACCTGGTCGGAGTCACCTAGTGCAG” is higher in binding signal: 6870 fluorescence intensity (a.u.) for the first, 55000 fluorescence intensity (a.u.) for the second.

Going from “GTTCGAGGGTGTATGTTGCACAAAGCGAAGAGTTAAGGGGCGGAGTCACCTAGTGCAG” to “TTCGTCTTCTTGCTCGGTGACTAAGCTGGGTTAGGAGAGGCGGAGTCACCTAGTGCAG”, the binding signal falls from 8580 fluorescence intensity (a.u.) to 3610 fluorescence intensity (a.u.).

First: TATATATTGATCGATGCGCCGGAGGGCGGAGAGGTGCATGCGGAGTCACCTAGTGCAG
Second: ACAAAGTTGTACCAATAATAATTTCGGATCATTATCGGATCGGAGTCACCTAGTGCAG
The binding signal of the first is lower: 3640 fluorescence intensity (a.u.) for the first, 13400 fluorescence intensity (a.u.) for the second.

First: ACCTCTCGCTCCACTCAGCCGCCGCCCCTCGCCGTCGCCGCGGAGTCACCTAGTGCAG
Second: TTCTTTAGCCAGCGTTACATATGATATGAATAAAGTTACACGGAGTCACCTAGTGCAG
The binding signal of the first is lower: 3520 fluorescence intensity (a.u.) for the first, 31200 fluorescence intensity (a.u.) for the second.

Going from “GTGCTTGATGTCGGCGCCGACGCTGGCGACGGGGTGGCCGCGGAGTCACCTAGTGCAG” to “TCATCGCCAGTCGTCACTCCGGCGACGGTGACCACCATCTCGGAGTCACCTAGTGCAG”, the binding signal falls from 15700 fluorescence intensity (a.u.) to 4040 fluorescence intensity (a.u.).

Compared with “AAAATGCTATGCATTTGATGCTTCCATGCAAGAAAGAGACCGGAGTCACCTAGTGCAG”, “GGCCCACCTGTCATACCTATCCTCAAACCAATCTGCCAATCGGAGTCACCTAGTGCAG” is lower in binding signal: 37600 fluorescence intensity (a.u.) for the first, 4090 fluorescence intensity (a.u.) for the second.

First: AGAGGGAGTGGCGGTGCCGTGCAAAGCTAGCTATACGTGGCGGAGTCACCTAGTGCAG
Second: CCCAACTCTGTAGACTGTAGTCTGGACTTCCACGTCACGTCGGAGTCACCTAGTGCAG
The binding signal of the first is lower: 4300 fluorescence intensity (a.u.) for the first, 23100 fluorescence intensity (a.u.) for the second.

Compared with “GGCTAACGGACCTCCACCCAACCCACATACCCCAATCGTGCGGAGTCACCTAGTGCAG”, “ATCAGGTGCATTTCTAATACACGTAGGGCACTTAACAAAGCGGAGTCACCTAGTGCAG” is higher in binding signal: 3370 fluorescence intensity (a.u.) for the first, 3500 fluorescence intensity (a.u.) for the second.

Going from “AAGAACCCAACAGTGACTAGAGCATTGGAATTTGGAACTTCGGAGTCACCTAGTGCAG” to “TAACCAGCTTGACAGGCTCGATGTCGGCCGTGTCGTCAGCCGGAGTCACCTAGTGCAG”, the binding signal rises from 3190 fluorescence intensity (a.u.) to 3960 fluorescence intensity (a.u.).

First: CGTTTCATGCAATCTGGCAAGAACAAAGTTTGTCATACACCGGAGTCACCTAGTGCAG
Second: ACCACACCTTGTCAAAACTTCAGTAACAGCAGAAGTTACACGGAGTCACCTAGTGCAG
The binding signal of the first is higher: 3370 fluorescence intensity (a.u.) for the first, 3140 fluorescence intensity (a.u.) for the second.

First: ATTAGGAGTTATTAATTGTAGTTAAAAGGCTGACACGTGGCGGAGTCACCTAGTGCAG
Second: CCGGGCTACCATCGCGGCGACGAAACGTGCATCATCATCCCGGAGTCACCTAGTGCAG
The binding signal of the first is higher: 25300 fluorescence intensity (a.u.) for the first, 3850 fluorescence intensity (a.u.) for the second.

Going from “GCGCAGGCAACCACCCCACCCTTCTTCTCGAAACCTCTTCCGGAGTCACCTAGTGCAG” to “GAACGCTCTCGCGAAACCAAACAGCGACACCGTGCAATATCGGAGTCACCTAGTGCAG”, the binding signal rises from 3290 fluorescence intensity (a.u.) to 3540 fluorescence intensity (a.u.).

First: CATGTAACATCTTCTACCTAGAAAATGGCGAAAGACGAGACGGAGTCACCTAGTGCAG
Second: TCGATCTGACGCGGATTCTGCTCATTCCAAATCGAATCCACGGAGTCACCTAGTGCAG
The binding signal of the first is higher: 24100 fluorescence intensity (a.u.) for the first, 6070 fluorescence intensity (a.u.) for the second.

First: ATAGTGCCATACTATGACGCACGCAACGACGTACGTCAAACGGAGTCACCTAGTGCAG
Second: TGGTACATGGTGTGCCCTACCGAGCTTAGTCAACCACTTTCGGAGTCACCTAGTGCAG
The binding signal of the first is higher: 3660 fluorescence intensity (a.u.) for the first, 3230 fluorescence intensity (a.u.) for the second.

Compared with “CTGAATGGGCCTCAATCCCAGCCCGTCCACGTGCATATATCGGAGTCACCTAGTGCAG”, “CTCCTACCTTCCCGTCGAAACGGCCATCTGGCACGTCTCGCGGAGTCACCTAGTGCAG” is lower in binding signal: 4760 fluorescence intensity (a.u.) for the first, 3220 fluorescence intensity (a.u.) for the second.
